# Reference: the supplement of paper PMC12819154, “High-throughput peptide-centric local stability assay extends protein–ligand identification to membrane proteins, tissues and bacteria” (Nature Structural & Molecular Biology, 2025)
# Amino acid sequences for entries named in this document (tags omitted). A change or cut given only in a name is not applied to a line headed by its entry.
# UniProt Q9JII6: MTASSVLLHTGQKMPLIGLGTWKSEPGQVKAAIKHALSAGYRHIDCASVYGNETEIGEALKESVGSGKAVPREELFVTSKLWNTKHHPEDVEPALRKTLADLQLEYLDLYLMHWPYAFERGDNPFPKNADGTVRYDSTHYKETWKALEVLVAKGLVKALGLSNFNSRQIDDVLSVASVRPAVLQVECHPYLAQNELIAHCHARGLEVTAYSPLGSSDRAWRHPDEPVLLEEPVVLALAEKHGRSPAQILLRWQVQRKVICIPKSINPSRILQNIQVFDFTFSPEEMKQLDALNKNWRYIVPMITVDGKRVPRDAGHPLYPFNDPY
# UniProt Q9JIS5, whole entry: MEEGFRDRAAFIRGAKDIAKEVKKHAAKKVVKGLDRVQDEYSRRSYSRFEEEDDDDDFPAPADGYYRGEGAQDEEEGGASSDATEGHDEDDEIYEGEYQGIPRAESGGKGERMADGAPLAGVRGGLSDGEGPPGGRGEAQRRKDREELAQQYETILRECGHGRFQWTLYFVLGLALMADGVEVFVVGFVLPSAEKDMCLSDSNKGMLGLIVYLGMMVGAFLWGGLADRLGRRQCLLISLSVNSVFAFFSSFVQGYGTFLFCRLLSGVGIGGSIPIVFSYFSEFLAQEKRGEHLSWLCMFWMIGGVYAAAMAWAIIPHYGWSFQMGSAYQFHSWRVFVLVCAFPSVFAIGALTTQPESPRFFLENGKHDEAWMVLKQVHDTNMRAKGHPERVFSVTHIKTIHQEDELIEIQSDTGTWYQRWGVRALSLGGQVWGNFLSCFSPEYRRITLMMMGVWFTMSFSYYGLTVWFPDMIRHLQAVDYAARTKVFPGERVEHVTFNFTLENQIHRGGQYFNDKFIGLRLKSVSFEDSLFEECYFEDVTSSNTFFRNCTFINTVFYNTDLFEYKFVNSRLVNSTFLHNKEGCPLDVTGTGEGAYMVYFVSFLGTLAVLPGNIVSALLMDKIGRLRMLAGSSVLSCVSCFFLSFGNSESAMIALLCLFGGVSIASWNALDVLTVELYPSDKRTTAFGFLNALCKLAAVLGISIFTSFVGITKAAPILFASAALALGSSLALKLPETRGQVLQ
# UniProt Q9JME7, whole entry: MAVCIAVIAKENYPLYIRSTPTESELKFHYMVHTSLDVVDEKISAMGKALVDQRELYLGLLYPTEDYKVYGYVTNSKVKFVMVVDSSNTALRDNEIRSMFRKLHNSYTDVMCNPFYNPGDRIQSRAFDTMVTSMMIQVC
# UniProt Q9QYC0: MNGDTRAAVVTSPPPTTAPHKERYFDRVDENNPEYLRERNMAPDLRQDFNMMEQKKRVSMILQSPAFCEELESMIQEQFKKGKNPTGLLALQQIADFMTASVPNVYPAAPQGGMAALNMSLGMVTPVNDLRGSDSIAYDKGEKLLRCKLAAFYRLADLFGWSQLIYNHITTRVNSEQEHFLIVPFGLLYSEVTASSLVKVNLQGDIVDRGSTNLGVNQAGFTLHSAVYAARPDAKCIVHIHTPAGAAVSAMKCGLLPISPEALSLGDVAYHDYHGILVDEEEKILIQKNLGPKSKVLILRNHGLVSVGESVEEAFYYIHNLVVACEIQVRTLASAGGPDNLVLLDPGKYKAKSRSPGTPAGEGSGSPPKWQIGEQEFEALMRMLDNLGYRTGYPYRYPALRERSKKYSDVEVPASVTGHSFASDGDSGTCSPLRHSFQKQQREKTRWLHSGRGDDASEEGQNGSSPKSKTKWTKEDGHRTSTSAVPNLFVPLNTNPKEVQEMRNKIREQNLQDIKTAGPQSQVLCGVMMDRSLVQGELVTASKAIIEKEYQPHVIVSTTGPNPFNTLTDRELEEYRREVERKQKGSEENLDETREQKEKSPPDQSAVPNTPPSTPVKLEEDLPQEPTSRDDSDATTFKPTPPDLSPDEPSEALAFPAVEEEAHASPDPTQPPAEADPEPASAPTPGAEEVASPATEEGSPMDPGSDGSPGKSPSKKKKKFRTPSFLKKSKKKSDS
# UniProt Q9QXE0: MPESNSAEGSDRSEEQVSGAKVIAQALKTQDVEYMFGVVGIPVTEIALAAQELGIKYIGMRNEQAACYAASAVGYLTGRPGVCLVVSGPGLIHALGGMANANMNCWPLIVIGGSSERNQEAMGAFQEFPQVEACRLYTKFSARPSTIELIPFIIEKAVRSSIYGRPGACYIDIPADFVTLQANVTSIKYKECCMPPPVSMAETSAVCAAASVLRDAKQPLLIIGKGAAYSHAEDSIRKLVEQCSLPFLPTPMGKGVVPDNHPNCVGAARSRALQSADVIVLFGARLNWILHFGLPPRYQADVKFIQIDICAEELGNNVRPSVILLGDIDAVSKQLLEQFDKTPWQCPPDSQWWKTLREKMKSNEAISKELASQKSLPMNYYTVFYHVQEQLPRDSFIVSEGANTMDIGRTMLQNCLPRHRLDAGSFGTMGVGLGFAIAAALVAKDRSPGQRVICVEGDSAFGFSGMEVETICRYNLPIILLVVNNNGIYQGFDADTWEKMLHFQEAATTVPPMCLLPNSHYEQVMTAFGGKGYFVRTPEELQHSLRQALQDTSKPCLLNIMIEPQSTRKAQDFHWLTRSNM
# UniProt Q9EQ06: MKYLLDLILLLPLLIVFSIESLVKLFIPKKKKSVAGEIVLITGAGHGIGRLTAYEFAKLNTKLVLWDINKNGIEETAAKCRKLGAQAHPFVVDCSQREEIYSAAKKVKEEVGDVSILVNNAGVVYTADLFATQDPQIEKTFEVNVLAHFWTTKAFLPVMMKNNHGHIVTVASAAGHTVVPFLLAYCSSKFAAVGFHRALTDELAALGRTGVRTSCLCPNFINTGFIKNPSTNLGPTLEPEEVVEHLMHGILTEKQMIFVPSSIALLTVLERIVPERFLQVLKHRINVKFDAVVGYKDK
# UniProt Q9JJ06: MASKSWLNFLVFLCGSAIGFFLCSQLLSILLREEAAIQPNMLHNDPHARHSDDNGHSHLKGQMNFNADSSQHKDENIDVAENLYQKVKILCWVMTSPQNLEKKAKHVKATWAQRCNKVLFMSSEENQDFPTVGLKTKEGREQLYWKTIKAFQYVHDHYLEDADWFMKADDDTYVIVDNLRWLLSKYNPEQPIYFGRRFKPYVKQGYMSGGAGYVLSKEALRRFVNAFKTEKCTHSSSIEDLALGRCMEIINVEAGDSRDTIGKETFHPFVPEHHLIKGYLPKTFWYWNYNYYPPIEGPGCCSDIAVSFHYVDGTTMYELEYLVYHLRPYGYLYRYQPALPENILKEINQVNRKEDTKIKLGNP
# UniProt Q9ESB3: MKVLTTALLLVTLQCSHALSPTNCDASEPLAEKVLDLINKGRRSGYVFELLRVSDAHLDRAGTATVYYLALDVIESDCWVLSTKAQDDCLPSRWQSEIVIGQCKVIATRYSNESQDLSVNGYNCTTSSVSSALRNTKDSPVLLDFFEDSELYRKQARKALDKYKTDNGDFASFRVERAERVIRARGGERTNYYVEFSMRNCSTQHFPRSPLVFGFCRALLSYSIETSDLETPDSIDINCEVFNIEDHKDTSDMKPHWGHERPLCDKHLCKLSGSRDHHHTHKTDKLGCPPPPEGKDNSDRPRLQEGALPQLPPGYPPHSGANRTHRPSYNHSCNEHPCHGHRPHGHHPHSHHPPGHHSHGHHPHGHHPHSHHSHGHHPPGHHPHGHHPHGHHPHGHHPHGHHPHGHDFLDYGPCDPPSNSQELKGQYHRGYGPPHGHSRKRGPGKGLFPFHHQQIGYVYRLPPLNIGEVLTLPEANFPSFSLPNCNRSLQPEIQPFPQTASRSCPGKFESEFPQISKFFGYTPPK
# UniProt Q9EP89: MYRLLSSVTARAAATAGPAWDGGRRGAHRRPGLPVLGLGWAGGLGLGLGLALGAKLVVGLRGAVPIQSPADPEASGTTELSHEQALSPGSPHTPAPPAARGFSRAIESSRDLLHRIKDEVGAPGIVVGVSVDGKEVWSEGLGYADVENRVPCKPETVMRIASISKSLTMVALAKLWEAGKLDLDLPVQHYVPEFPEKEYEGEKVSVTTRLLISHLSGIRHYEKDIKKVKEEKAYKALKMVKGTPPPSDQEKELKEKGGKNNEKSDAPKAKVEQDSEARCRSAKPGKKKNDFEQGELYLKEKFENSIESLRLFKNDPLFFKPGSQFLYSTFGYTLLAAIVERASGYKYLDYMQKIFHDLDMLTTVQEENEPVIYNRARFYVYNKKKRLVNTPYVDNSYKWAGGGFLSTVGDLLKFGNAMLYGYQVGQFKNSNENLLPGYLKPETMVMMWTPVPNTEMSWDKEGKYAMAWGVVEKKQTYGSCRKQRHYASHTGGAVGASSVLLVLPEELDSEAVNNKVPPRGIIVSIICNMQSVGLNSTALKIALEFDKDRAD
# UniProt Q9QXF8: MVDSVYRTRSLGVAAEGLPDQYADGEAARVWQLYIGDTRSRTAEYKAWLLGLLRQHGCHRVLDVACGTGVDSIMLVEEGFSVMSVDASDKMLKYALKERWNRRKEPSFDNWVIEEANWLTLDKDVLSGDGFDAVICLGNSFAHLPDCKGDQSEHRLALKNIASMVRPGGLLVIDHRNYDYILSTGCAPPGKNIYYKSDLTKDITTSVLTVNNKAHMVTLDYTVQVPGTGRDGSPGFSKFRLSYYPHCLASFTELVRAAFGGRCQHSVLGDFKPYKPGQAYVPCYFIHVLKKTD
# UniProt Q9JHJ0: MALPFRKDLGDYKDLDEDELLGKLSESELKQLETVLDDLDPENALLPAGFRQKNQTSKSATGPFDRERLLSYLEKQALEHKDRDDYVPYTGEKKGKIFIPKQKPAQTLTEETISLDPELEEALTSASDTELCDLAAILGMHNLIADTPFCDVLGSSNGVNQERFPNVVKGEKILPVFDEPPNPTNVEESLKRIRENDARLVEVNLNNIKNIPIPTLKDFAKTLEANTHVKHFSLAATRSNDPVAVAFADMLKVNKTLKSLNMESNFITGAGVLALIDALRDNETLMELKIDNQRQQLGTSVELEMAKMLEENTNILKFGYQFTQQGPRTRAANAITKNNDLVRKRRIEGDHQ
# UniProt Q9DCC8, whole entry: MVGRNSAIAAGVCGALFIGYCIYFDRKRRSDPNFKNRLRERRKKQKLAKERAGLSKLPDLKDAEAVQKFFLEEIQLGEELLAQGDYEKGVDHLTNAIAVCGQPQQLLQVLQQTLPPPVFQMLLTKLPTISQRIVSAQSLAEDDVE
# UniProt Q9QUJ7: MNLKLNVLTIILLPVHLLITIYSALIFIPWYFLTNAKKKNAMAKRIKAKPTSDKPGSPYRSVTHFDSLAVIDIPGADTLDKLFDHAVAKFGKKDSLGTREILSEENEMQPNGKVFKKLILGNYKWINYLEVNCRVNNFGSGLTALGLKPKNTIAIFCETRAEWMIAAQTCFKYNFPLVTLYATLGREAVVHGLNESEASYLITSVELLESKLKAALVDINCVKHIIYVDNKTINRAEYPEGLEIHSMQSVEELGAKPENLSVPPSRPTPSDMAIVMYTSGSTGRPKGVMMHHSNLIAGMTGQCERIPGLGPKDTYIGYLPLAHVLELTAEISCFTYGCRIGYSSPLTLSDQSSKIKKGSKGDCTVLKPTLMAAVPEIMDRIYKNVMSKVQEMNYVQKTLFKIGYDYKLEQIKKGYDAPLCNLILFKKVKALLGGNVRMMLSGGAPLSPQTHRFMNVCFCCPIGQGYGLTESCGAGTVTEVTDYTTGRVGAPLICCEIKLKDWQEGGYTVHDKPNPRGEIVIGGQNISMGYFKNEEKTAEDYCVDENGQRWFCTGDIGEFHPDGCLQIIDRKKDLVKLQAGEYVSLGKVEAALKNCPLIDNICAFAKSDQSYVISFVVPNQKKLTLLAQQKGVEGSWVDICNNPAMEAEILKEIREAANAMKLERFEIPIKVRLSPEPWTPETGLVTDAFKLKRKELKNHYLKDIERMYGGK
# UniProt Q9JHU9: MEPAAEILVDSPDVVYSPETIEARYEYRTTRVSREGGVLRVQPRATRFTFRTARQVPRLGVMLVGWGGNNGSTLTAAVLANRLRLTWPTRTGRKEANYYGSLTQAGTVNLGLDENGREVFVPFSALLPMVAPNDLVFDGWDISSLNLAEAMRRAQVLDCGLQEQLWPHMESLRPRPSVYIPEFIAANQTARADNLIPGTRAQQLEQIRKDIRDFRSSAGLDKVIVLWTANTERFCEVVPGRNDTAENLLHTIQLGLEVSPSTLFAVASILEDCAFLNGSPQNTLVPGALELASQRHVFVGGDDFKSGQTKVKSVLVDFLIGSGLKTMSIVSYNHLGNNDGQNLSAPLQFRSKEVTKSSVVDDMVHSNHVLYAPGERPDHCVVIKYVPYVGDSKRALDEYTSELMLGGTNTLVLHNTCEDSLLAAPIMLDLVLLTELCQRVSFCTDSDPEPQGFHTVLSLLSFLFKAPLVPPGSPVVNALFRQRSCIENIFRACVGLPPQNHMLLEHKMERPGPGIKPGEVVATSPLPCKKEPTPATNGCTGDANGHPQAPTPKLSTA
# UniProt Q9QYB1: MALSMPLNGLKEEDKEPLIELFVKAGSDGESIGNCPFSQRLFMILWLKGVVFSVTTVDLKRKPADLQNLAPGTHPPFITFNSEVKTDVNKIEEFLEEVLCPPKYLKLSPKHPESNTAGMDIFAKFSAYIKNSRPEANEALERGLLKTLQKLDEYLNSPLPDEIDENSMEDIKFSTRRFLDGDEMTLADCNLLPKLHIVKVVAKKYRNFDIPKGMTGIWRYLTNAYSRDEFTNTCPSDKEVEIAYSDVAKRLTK
# The other results are listed elsewhere or left out. Most values lie at the level of the controls, where differences are scatter.
# Compound: CN[C@@H]1C[C@H]2O[C@@](C)([C@@H]1OC)n1c3ccccc3c3c4c(c5c6ccccc6n2c5c31)C(=O)NC4 [staurosporine]
# Assay: log2 fold change of pooled soluble protein (PISA), ligand vs vehicle (log2 ratio); higher = more thermally stabilized
# Conditions: ligand concentration: 20 uM; assay format: PISA pool 52.9/55.5/58.6 C
row,Target,log2 fold change of pooled soluble protein
1,UniProt Q9JII6,-0.0924
2,UniProt Q9QWW1,-0.00632
3,UniProt Q9JKF6,0.296
4,UniProt Q9JK81,-0.368
5,UniProt Q9JIS5,0.0247
6,UniProt Q9EPC1,-0.169
7,UniProt Q9JKX6,-0.0567
8,UniProt Q9JHH6,0.0371
9,UniProt Q9JME7,-0.0388
10,UniProt Q9EQ28,0.235
11,UniProt Q9QXG4,-0.011
12,UniProt Q9QYC0,0.118
13,UniProt Q9QXE0,-0.0538
14,UniProt Q9EQ06,-0.163
15,UniProt Q9JJ06,-0.225
16,UniProt Q9QXS1,0.0527
17,UniProt Q9JHI5,-0.0229
18,UniProt Q9ESB3,-0.0371
19,UniProt Q9EP89,0.0896

row,Target,log2 fold change of pooled soluble protein
1,UniProt Q9EST3,0.0336
2,UniProt Q9QXF8,-0.0239
3,UniProt Q9QX47,0.0854
4,UniProt Q9JJS6,-0.108
5,UniProt Q9JK53,-0.157
6,UniProt Q9QUR6,-0.111
7,UniProt Q9JHJ0,0.13
8,UniProt Q9JHK4,-0.0987
9,UniProt Q9DCC8,-0.0884
10,UniProt Q9QUJ7,0.147
11,UniProt Q9JHC9,-0.238
12,UniProt Q9ET22,-0.0213
13,UniProt Q9JHU9,-0.128
14,UniProt Q9QYB1,0.0819
15,UniProt Q9DCC4,-0.114
16,UniProt Q9EPK7,0.0637
17,UniProt Q9QY30,0.00161
18,UniProt Q9JKP7,-0.0045

# 2 entries from above, bar-delimited:
row | Target | log2 fold change of pooled soluble protein
10 | UniProt Q9EQ28 | 0.235
19 | UniProt Q9EP89 | 0.0896
